Data from PubChem BioAssay (NCATS).
Values joined by “and” are separate entries in the source; they are usually repeats but may differ in a detail not shown here. Identical values can stand only once. The source calls these results inconclusive, neither active nor inactive. Unless noted, calls follow the shape of the dose curve; as a rule, active = well fitted curve in the direction sought with a large enough effect; inconclusive = small, poorly fitted or top-dose-only effect, or another doubt; inactive = no such curve, though single readings can be large; an effect the other way counts as inactive or inconclusive. Some structures show a salt or complex split into parts, the way the source records it.

Protein sequences, listed by entry. Tags and fused reporters are not part of them.
UniProt Q03181, whole entry: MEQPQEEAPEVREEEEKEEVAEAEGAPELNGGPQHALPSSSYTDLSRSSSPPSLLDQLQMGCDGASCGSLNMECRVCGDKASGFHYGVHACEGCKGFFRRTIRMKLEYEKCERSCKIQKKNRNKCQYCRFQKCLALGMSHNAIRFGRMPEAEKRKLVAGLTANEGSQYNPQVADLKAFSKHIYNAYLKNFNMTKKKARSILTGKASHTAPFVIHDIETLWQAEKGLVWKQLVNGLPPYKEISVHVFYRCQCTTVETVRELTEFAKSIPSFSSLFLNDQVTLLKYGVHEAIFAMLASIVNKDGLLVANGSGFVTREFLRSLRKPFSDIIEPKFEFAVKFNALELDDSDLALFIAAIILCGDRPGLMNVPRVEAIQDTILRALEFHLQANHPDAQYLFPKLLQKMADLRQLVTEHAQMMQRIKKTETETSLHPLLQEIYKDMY
UniProt P10828, whole entry: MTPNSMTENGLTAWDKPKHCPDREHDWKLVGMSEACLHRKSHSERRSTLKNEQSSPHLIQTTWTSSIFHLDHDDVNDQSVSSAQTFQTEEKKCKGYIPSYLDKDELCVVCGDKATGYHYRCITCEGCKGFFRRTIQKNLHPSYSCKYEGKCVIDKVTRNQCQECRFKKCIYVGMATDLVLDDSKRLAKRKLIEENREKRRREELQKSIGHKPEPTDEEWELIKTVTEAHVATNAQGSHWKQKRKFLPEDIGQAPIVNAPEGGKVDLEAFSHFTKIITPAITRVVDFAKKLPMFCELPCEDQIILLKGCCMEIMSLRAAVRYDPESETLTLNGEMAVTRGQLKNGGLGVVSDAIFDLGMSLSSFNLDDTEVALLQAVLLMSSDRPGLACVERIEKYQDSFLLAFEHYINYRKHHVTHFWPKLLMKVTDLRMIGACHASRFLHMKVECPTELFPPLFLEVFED
UniProt O95398, whole entry: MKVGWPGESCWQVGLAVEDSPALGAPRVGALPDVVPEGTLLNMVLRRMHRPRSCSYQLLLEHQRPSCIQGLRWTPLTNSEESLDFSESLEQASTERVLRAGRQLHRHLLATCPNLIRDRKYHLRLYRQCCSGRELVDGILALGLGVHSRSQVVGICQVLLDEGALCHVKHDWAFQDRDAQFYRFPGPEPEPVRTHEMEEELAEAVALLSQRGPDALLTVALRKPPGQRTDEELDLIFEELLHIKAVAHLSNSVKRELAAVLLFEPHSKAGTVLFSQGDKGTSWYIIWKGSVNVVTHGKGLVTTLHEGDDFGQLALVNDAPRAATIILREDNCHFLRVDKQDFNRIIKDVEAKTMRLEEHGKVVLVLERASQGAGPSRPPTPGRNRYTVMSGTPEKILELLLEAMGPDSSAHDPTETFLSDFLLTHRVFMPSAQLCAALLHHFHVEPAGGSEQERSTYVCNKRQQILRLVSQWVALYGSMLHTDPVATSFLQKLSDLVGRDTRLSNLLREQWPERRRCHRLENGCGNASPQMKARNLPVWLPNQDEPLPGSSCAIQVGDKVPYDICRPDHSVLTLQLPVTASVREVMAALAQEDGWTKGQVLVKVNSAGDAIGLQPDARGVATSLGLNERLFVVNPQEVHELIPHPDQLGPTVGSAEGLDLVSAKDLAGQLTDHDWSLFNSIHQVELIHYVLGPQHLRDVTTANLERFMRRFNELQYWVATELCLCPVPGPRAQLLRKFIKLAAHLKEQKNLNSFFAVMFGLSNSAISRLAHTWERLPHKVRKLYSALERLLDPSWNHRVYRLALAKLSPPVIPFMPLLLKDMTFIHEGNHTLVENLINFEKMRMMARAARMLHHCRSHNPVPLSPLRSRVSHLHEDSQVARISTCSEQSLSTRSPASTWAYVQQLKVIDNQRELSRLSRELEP

What was measured:
[1] = Cell Viability - LYMP2-004 (AID 966); conditions: LYMP2-004 lymphoblastoid cell viability, qHTS;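 also: potency is read from the fitted curve at half-maximal effect; cells exposed to compound for 24 h; nearly all actives have a fitted effect of over 65% in size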
Summary of the method: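 Viable-cell number estimated from ATP luminescence (CellTiter-Glo) in 2500 human lymphoblastoid cells/well after 24 hr at 37 C with compound. AC50 fitted to the standard Hill equation.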

[2] = Cell Viability - LYMP2-015 (AID 971); conditions: LYMP2-015 lymphoblastoid cell viability
Summary of the method: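 AC50 values reflect Hill-model fits of ATP-based luminescence (CellTiter-Glo) from a human lymphoblastoid line, 2500 cells/well, treated 24 hr at 37 C.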

[3] = Cell Viability - LYMP2-017 (AID 972); conditions: LYMP2-017 lymphoblastoid cell viability
Summary of the method: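 In this qHTS format, lymphoblastoid cells in complete medium receive test compound for a day at 37 C before ATP content is quantified by luciferase luminescence. Reported AC50 figures come from standard Hill-equation curve fitting.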

[4] = Cell Viability - LYMP2-007 (AID 979); conditions: LYMP2-007 lymphoblastoid cell viability;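 also: potency is read from the fitted curve at half-maximal effect; cells exposed to compound for 24 h before reading; nearly all actives have a fitted effect of over 60% in size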
Summary of the method: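 Measured via luciferase-based ATP quantitation: lymphoblastoid cells, 24 hr compound exposure at 37 C, AC50 from Hill fits.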

[5] = Cell Viability - LYMP2-024 (AID 988); conditions: LYMP2-024 lymphoblastoid cell viability; also: potency is read from the fitted curve at half-maximal effect; nearly all actives have a fitted effect of over 60% in size
Summary of the method: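 Cells at 2500 per well received compound for 24 hr after a 5 hr settling period. Viability was scored by CellTiter-Glo luminescence, with AC50 from Hill fits.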

[6] = target: Glucocorticoid receptor (Homo sapiens) (UniProt P04150); assay: qHTS assay for small molecule antagonists of glucocorticoid receptor signaling (AID 588533; active = well fitted inhibition curve with a large enough effect in the signal ratio, with a control signal flat, not every such curve was filed as active; inconclusive = small, poorly fitted or top-dose-only effect, or effect the other way, or a change in a side signal; the % refers to the signal ratio;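 also: cells stimulated with 2 nM dexamethasone as agonist; % is scaled to controls: 0 for no effect and ±100 for the full control effect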); conditions: HeLa MMTV-bla, GRE beta-lactamase ratio, antagonist mode, 18 h; activity change, negative = inhibition: at 76.8 µM (top of the series)
[7] = target: Peroxisome proliferator-activated receptor delta (Homo sapiens) (UniProt Q03181); assay: qHTS assay for small molecule antagonists of peroxisome proliferator-activated receptor delta signaling (AID 588535; active = well fitted inhibition curve with a large enough effect in the signal ratio, with a control signal flat, not every such curve was filed as active; inconclusive = small, poorly fitted or top-dose-only effect, or effect the other way, or a change in a side signal; inactive = no such curve, though single readings can be large or run the other way; the % refers to the signal ratio; also: potency is read from the fitted curve at half-maximal effect); conditions: HEK293T PPARd-UAS-bla, beta-lactamase FRET ratio, 18 h; activity change, negative = inhibition: at 76.7 µM (top of the series)
[8] = target: Peroxisome proliferator-activated receptor gamma (Homo sapiens) (UniProt P37231); assay: qHTS assay for small molecule antagonists of peroxisome proliferator-activated receptor gamma signaling (AID 588537; active = well fitted inhibition curve with a large enough effect in the signal ratio, with a control signal flat, not every such curve was filed as active; inconclusive = small, poorly fitted or top-dose-only effect, or effect the other way, or a change in a side signal; the % refers to the signal ratio;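 also: reporter cells co-stimulated with 50 nM rosiglitazone agonist during compound treatment; % of control where 0% means no effect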); conditions: HEK293 PPARg-UAS-bla, beta-lactamase ratio, antagonist mode; activity, negative = inhibition: at 76.8 µM (top of the series)
Summary of the method: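 HEK293 cells, PPAR-gamma-UAS-bla, 3000/well. Pre-incubation 6-6.5 h, 37 C. Compound titration with rosiglitazone 50 nM final, 16 h. CCF4 dye, 2 h RT, dual-emission fluorescence.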

[9] = qHTS assay for small molecule agonists of the antioxidant response element (ARE) signaling pathway (AID 651741; active = well fitted activation curve with a large enough effect in the signal ratio; inconclusive = small, poorly fitted or top-dose-only effect, or effect the other way, or a change in a side signal; the % refers to the signal ratio; also: potency is read from the fitted curve at half-maximal effect); conditions: HepG2 ARE-bla reporter, beta-lactamase FRET ratio, 16 h; activation: at 96 µM (top of the series)
Summary of the method: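 Beta-lactamase reporter expression driven by the antioxidant response element in HepG2 cells was detected by fluorescence with LiveBLAzer B/G FRET substrate (2 h, room temperature) following 16 h compound treatment at 37 C.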

[10] = qHTS assay to identify small molecules that stimulate interleukin-8 (IL-8) secretion (AID 651758; active = well fitted activation curve with a large enough effect in the signal ratio; inconclusive = small, poorly fitted or top-dose-only effect, or effect the other way, or a change in a side signal; the % refers to the signal ratio); conditions: HTRF ratio (665/615); activation: at 92.2 µM (top of the series)
Summary of the method: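 Quantitative HTS in THP-1 monocytic cells at 2000 cells per well, with 16 hrs compound incubation at 37 C. IL-8 in the medium was then quantified by HTRF immunoassay, read after 1-3 hrs at room temperature.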

[11] = qHTS assay for small molecule agonists of the antioxidant response element (ARE) signaling pathway measured by Nrf2-dependant transcriptional activity (AID 720636; active = well fitted curve in the direction sought with a large enough effect in the repeat runs; inconclusive = weak or mixed curves; inactive = no such curve, though single readings can be large; an effect the other way counts as inactive or inconclusive; also: potency is read from the fitted curve at half-maximal effect); conditions: ARE-luc HepG2, Nrf2 luciferase reporter, 16 h
Summary of the method: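 Reporter gene assay, HepG2 ARE-luc: 16 hr compound, 37 C, 5% CO2; read-out luciferase luminescence.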

[12] = MultiTox-Fluor Cytotoxicity Assay - LYMP1-001 - Live Cells (AID 947); conditions: LYMP1-001 lymphoblastoid cells, live-cell protease fluorescence viability; also: potency is read from the fitted curve at half-maximal effect
[13] = target: Thyroid hormone receptor beta (Homo sapiens) (UniProt P10828); assay: qHTS assay for small molecule antagonists of thyroid hormone receptor beta signaling (AID 588547; active = well fitted inhibition curve with a large enough effect in the signal ratio, with a control signal flat, not every such curve was filed as active; inconclusive = small, poorly fitted or top-dose-only effect, or effect the other way, or a change in a side signal; the % refers to the signal ratio; also: potency is read from the fitted curve at half-maximal effect); conditions: TR-UAS-bla HEK293, beta-lactamase ratio, antagonist mode, 18 h; inhibition: hits give low values
Summary of the method: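 TR-UAS-bla GripTite HEK293 cells in 2% charcoal/dextran FBS medium were preincubated 4 h at 37 C, given compound (0.59 nM to 92 uM) plus 0.4 nM T3 (final) for 18 h, then CCF4 for 2 h at RT; Hill fit gave IC50.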

[14] = Primary qHTS for inhibitors of nuclear receptor binding SET domain protein 2 (NSD2) in an isogenic RCH-ACV NSD2 p.E1099K mutant (9B) (AID 1645876); conditions: RCH-ACV (leukaemia line) NSD2 E1099K (9B) viability, CellTiter-Glo, 72 h; also: potency is read from the fitted curve at half-maximal effect; nearly all actives have a fitted effect of over 70% in size
[15] = target: Rap guanine nucleotide exchange factor 3 (Homo sapiens) (UniProt O95398); assay: Confirmatory qHTS for antagonist of cAMP-regulated guanine nucleotide exchange factor 3 (EPAC1) (AID 1645880); conditions: EPAC1 Rap1B-BODIPY-GDP exchange, fluorescence; also: potency is read from the fitted curve at half-maximal effect; nearly all actives have a fitted effect of over 55% in size
Summary of the method: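 Released BODIPY-GDP fluoresces less than Rap1-bound BODIPY-GDP; the signal is followed at 480/540 nm at 5-min intervals over 30 min, after 5 min at room temperature. Reactions contain 100 nM EPAC1, 250 nM RAP1B-BODIPY-GDP and 50 uM GDP; results are normalized to ATA and DMSO.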

[16] = target: Retinoic acid receptor RXR-alpha (Homo sapiens) (UniProt P19793); assay: qHTS assay for small molecule agonists of retinoid X receptor alpha signaling (AID 588544; calls by dose curve;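 also: 0% = DMSO basal wells and 100% = reference agonist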); conditions: HEK293T RXRa-UAS-bla, beta-lactamase reporter, 18 h; at 76.7 µM (top of the series)
[17] = target: Retinoic acid receptor RXR-alpha (Homo sapiens) (UniProt P19793); assay: qHTS assay for small molecule antagonists of retinoid X receptor alpha signaling (AID 588546; active = well fitted inhibition curve with a large enough effect in the signal ratio, with a control signal flat, not every such curve was filed as active; inconclusive = small, poorly fitted or top-dose-only effect, or effect the other way, or a change in a side signal; inactive = no such curve, though single readings can be large or run the other way; the % refers to the signal ratio;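 also: cells stimulated with 9-cis-retinoic acid as agonist; % is scaled to controls: 0 for no effect and ±100 for the full control effect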); conditions: HEK293T RXRa-UAS-bla, beta-lactamase ratio, antagonist mode
Summary of the method: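 Beta-lactamase reporter inhibition, read as CCF4 fluorescence ratio (ex 405, em 460/530 nm) after 2 h at RT. HEK293T UAS-bla cells, 2500/well, were stimulated with 9-cis-RA at 500 or 100 nM final alongside test compound for 18 h at 37 C.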

[18] = AP1 Signaling Pathway (AID 357; active = well fitted curve in either direction with a large enough effect, not every such curve was filed as active; inconclusive = small, poorly fitted or top-dose-only effect, or another doubt;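 also: ME-180 reporter cells stimulated with EGF at its EC50 level; % is scaled to controls: 0 for no effect and ±100 for the full control effect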); conditions: ME-180 (cervical carcinoma) AP-1-bla reporter, EGF-induced, beta-lactamase ratio, 5 h; at 17.2 µM (top of the series)
Summary of the method: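 Cells are seeded overnight, exposed to compound titrations and an EC50 level of EGF for 5 hours at 37 °C, then loaded with CCF4 dye for 2.5 hours. Beta-lactamase activity under the AP-1 element is read as a blue/green ratio.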

[19] = NFAT Signaling Pathway (AID 444; active = well fitted curve in either direction with a large enough effect, not every such curve was filed as active; inconclusive = small, poorly fitted or top-dose-only effect, or another doubt;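 also: carbachol stimulus at about its EC50 of 1 µM final; % is scaled to controls: 0 for no effect and ±100 for the full control effect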); conditions: Jurkat NFAT-bla M1, carbachol, beta-lactamase ratio, 5 h; at 38 µM (top of the series) unless noted
Summary of the method: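 Jurkat cells carrying an NFAT-driven β-lactamase reporter and co-transfected muscarinic M1 receptor were treated with compound plus carbachol (1 uM final, an EC50 level) for 5 h at 37 °C. CCF4 loading followed for 1 h at RT; 460/530 nm ratio gave %activity.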

CCC(C)(OO)OOC(C)(CC)OO (stereo not drawn)
Potency [1]: inconclusive: 63.1 µM
outcome [2]: inconclusive
outcome [3]: inconclusive
Potency [4]: inconclusive: 31.6 µM
Potency [5]: inconclusive: 31.6 µM
activity change, negative = inhibition [6]: inconclusive: 27.1%
Potency [7]: inconclusive: 50.1 µM
activity, negative = inhibition [8]: inconclusive: 0.872%
Potency [9]: inconclusive: 75 µM
outcome [10]: inconclusive
Potency [11]: inconclusive: 48.6 µM

Cc1c([N+](=O)[O-])cccc1[N+](=O)[O-]
Potency [12]: inconclusive: 3.98 µM
activity, negative = inhibition [8]: inconclusive: -0.226%

OCCN(CCO)CCO
Potency [13]: inconclusive: 0.0158 µM
Potency [9]: inconclusive: 68.6 µM

C/C1=C2/N=C(C(CC(N)=O)C2(C)CCC(=O)NCC(C)OP(=O)([O-])OC2C(CO)OC(n3cnc4cc(C)c(C)cc43)C2O)C2(C)N=C(/C(C)=C3N=C(/C=C4N=C1C(CCC(N)=O)C\4(C)C)C(CCC(N)=O)C/3(C)CC(N)=O)C(CCC(N)=O)C2(C)CC(N)=O.[C-]#N.[Co] (stereo not drawn)
Potency [14]: inconclusive: 18.6 µM

O=[N+]([O-])c1cc([N+](=O)[O-])c(C(F)(F)F)c([N+](=O)[O-])c1O
Potency [15]: inconclusive: 10.7 µM

CC(C)OP(=S)(OC(C)C)SCCNS(=O)(=O)c1ccccc1
activity change, negative = inhibition [6]: inconclusive: -11.1% and inconclusive: -10.3%
activation [16]: inconclusive: -40% and inconclusive: -41.9%
max response [17]: inconclusive: -51%

CCN(CC)CC(O)COC(=O)C(O)(c1ccccc1)C1CCCCC1 (stereo not drawn)
activity change, negative = inhibition [18]: inconclusive: 54.9%
activity change, negative = inhibition [19]: inconclusive: -77.2% [at 17.2 µM]

BrCc1ccccc1
Potency [1]: inconclusive: 1.26 µM
